Literature values, collected in US20070266892A1, “Amyloid and Amyloid-like Structures” (The Provost, Fellows and Scholars of the College of The …, priority 2006, published 2007).

Settings: literature values; cited from earlier work

Row | Substance | persistence length [nm]
1 | tenascin | 0.42
2 | titin | 0.4
